Measured values: patent publication US7553105B1, “Method and compositions for treatment of subsurface contaminants” (Colorado School of Mines, priority 2005, dated 2009)
Values joined by “and” are separate entries in the source; they are usually repeats but may differ in a detail not shown here. Equal entries are not always repeated.

Test: 2-D flow-through cell co-injection flush with 3.5 wt % DOWFAX 8390 and 4 wt % KMnO4
[1] = Transect 1, sampling port C, pre-flush 31
[2] = Transect 1, sampling port D, pre-flush 50
[3] = Transect 1, sampling port E, pre-flush 9
[4] = Transect 1, sampling port F, pre-flush <1
[5] = Transect 2, sampling port A, pre-flush 146
[6] = Transect 2, sampling port B, pre-flush 84
[7] = Transect 2, sampling port G, pre-flush 78
[8] = effluent composite, pre-flush 12

## ClC(Cl)=C(Cl)Cl [PCE, tetrachloroethene]
FIG. 6, about 30 minutes after start of flush, increased from 213 mg/L
  PCE concentration in port B after permanganate/surfactant front entered source zone: 1078 mg/L
FIG. 7, absence of downward vertical migration
  PCE concentration in port F throughout the co-injection experiment: < 1 mg/L
FIG. 7, increased from 176 mg/L
  PCE concentration in port E one hour after initiation of co-injection flush: 737 mg/L
FIG. 7, two hours after the 737 mg/L peak
  PCE concentration in port E two hours later: 3 mg/L
[1]
  PCE concentration, 8-Days Post Flush: <1 mg/L
  PCE concentration, During Flush (t = 5 hrs): 28 mg/L
[2]
  PCE concentration, 8-Days Post Flush: 66 mg/L
  PCE concentration, During Flush (t = 5 hrs): 48 mg/L
[3]
  PCE concentration, 8-Days Post Flush: 33 mg/L
  PCE concentration, During Flush (t = 5 hrs): 287 mg/L
[4]
  PCE concentration, 8-Days Post Flush: <1 mg/L
  PCE concentration, During Flush (t = 5 hrs): <1 mg/L
[5]
  PCE concentration, 8-Days Post Flush: 137 mg/L
  PCE concentration, During Flush (t = 5 hrs): 183 mg/L
[6]
  PCE concentration, 8-Days Post Flush: 118 mg/L
  PCE concentration, During Flush (t = 5 hrs): 1296 mg/L and 824 mg/L
[7]
  PCE concentration, 8-Days Post Flush: 263 mg/L
  PCE concentration, During Flush (t = 5 hrs): 824 mg/L and 1296 mg/L
Transect 2, sampling port H, pre-flush 12
  PCE concentration, 8-Days Post Flush: 1 mg/L
[8]
  Effluent PCE Concentration, 8 Days Post-Flush: 37 mg/L
  Effluent PCE Concentration, During Flush (t = 5 hrs): 6 mg/L
From effluent PCE concentrations over 10-hour (2 PV) co-injection
  PCE mass removal: 23%
